Test results from PubChem BioAssay AID624291 (National Center for Advancing Translational Sciences (NCATS), 2012).
The whole screen tested about 350,000 compounds, of which about 220 (0.063%) were called active. Inconclusive results, whose numbers are uncertain, are shown with a selection of clear calls. The call rests on the fitted dose curve; in most records, active means well fitted activation curve with a large enough effect; inconclusive means small, poorly fitted or top-dose-only effect; inactive means no such curve, though single readings can be large or run the other way. Potencies of inconclusive entries are doubtful fits and often do not repeat.

Assay: qHTS for Activators of Integrin-Mediated Alleviation for Muscular Dystrophy; further: nearly all actives have a fitted effect of over 60% in size;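 on activation: 100% = response of the positive control SU9516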
Conditions: alpha7betagal myoblasts, beta-gal FDG fluorescence, 48 h; activation: at 38.3 µM (top of the series)
How it was run: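 Alpha7betagal+/- myoblasts (passage 13) were plated 16-24 hr, then exposed to compounds (1:260 dilution of DMSO stock) for 48 hours at 37C. After MPER lysis, β-galactosidase reporter activity was read as FDG fluorescence (ex 480/em 540) after 30 minutes.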
Potency means the concentration at half of the fitted maximal effect.

SMILES	activation	Potency
COc1ccccc1NC(=S)NCc1ccco1	inactive: -9.6%	
O=c1[nH]c(SCc2ccc(Cl)cc2)nc2ccsc12		inconclusive: 10 µM [activator, partial curve]
COc1ccccc1Nc1ncc(C(=O)N2CCN(Cc3ccc(OC)c(OC)c3OC)CC2)c2ccccc12		inconclusive: 5.01 µM [activator, single point]
Cc1ccc(NC(=O)C2CCCN(S(=O)(=O)c3ccc4[nH]c(=O)ccc4c3)C2)cc1C (stereo unspecified)	inactive: 13.6%	
CCCCn1c(N)c(N(CC(C)C)C(=O)C2CCN(S(=O)(=O)c3ccc(Cl)cc3)CC2)c(=O)[nH]c1=O		inconclusive: 10 µM [activator, single point]
COc1ccc(C(=O)Nc2c3c(nn2-c2ccc(Cl)cc2)CS(=O)(=O)C3)cc1	inconclusive: 60.8% [activator]	
S=c1[nH]nc(-c2ccco2)n1/N=C/C=C/c1ccco1	inactive: -13%	
CC1CC(C)(C)NC(=S)N1CC(=O)NCc1ccc2c(c1)OCO2 (stereo unspecified)		inconclusive: 14.1 µM [activator, single point]
COc1ccccc1CNC(=O)c1cc(-c2ccccc2C)n(CC2CC(c3cccc([N+](=O)[O-])c3)=NO2)n1 (stereo unspecified)	inactive: 14.9%	
CC(=O)c1ccc(NC(=S)NCCc2cccc(Cl)c2)cc1	inactive: -13.3%	
CCc1nc(Nc2cccc(OC)c2)c2oc3ccccc3c2n1		inconclusive: 25.1 µM [activator, single point]
COc1ccc(CCNC(=O)COc2ccc(C)nc2[N+](=O)[O-])cc1		inconclusive: 5.01 µM [activator, single point]
O=C(NCc1ccccc1)C1CCCN(S(=O)(=O)c2ccc(F)cc2)C1 (stereo unspecified)		inconclusive: 10 µM [activator, partial curve, poor fit]
COc1cccc(/C=C2\C=C(c3ccc(C)cc3)OC2=O)c1OC(C)=O		inconclusive: 10 µM [activator, partial curve, poor fit]
COc1ccc2nc(N3CCN(C(=O)c4ccc5ncsc5c4)CC3)sc2c1		inconclusive: 3.55 µM [activator, single point]
COc1ccc(NC(=O)CCN=C2NS(=O)(=O)c3ccccc32)cc1S(=O)(=O)N(C)C	inactive: 9.09%	
Cc1c(NC(=O)/C(C#N)=C/c2cccs2)c(=O)n(-c2ccccc2)n1C		inconclusive: 28.2 µM [activator, single point]
COC(=O)C(Cc1ccccc1)NC(=O)c1ccc(C)cc1 (stereo unspecified)	inactive: 1.09%	
CCOC(=O)c1ccc[n+]([O-])c1		inconclusive: 3.55 µM [activator, single point]
Oc1ccccc1C=NN=Cc1c(O)ccc2ccccc12	inactive: 27.6%	
COc1ccccc1C(=O)Nc1ccccc1C(=O)NCc1ccco1		inconclusive: 2.82 µM [activator, single point]
CCNc1nc(SC(C)C(=O)OC)nc(N(C)C)n1 (stereo unspecified)		inconclusive: 5.01 µM [activator, single point]
CCn1c(NCc2cc(OC)ccc2OC)nc2ccccc21	inactive: -3.14%	

Entries from the list above with a nitro group on carbon, in the order listed:
SMILES	activation	Potency
COc1ccccc1CNC(=O)c1cc(-c2ccccc2C)n(CC2CC(c3cccc([N+](=O)[O-])c3)=NO2)n1 (stereo unspecified)	inactive: 14.9%	
COc1ccc(CCNC(=O)COc2ccc(C)nc2[N+](=O)[O-])cc1		inconclusive: 5.01 µM [activator, single point]

Additional records

SMILES	activation	Potency
O=C1CC(N(C(=O)c2ccco2)c2ccc(F)cc2)C(=O)N1c1ccc(F)cc1 (stereo unspecified)		inconclusive: 5.01 µM [activator, single point]
COc1ccc(NC(=O)c2ccco2)cc1S(=O)(=O)N1CCCCC1		inconclusive: 0.447 µM [activator, full curve, poor fit]
Cc1cc(/C=C2\SC(=S)NC2=O)c(C)n1-c1ccccc1	inactive: 19.9%	
Cc1nnc(NC(=O)c2cc(S(=O)(=O)N3CCCCC3)ccc2Cl)s1		inconclusive: 11.2 µM [activator, partial curve, poor fit]
CC(C)Cc1nc2sc3c(SCC(N)=O)ncnc3c2c2c1CCC2		inconclusive: 2 µM [activator, full curve, poor fit]
COc1ccc(C(=O)Nc2nc3ccccc3s2)cc1OC	inactive: -12.1%	
C/C(=N\NC(=O)c1ccc(O)cc1)c1cccc(NC(=O)c2ccc(Cl)cc2)c1	inactive: -28.2%	
CC(=O)N1c2ccc(S(=O)(=O)N3CCC(C(=O)NCc4ccccc4Cl)CC3)cc2CC1C (stereo unspecified)		inconclusive: 5.01 µM [activator, single point]
CC(=O)Nc1nnc(CSCc2ccccc2F)s1	inconclusive: 5.72% [activator]	
O=c1c2ccccc2nnn1Cc1ccccc1		inconclusive: 5.01 µM [activator, single point]
Cc1cc(C(=O)N2CCC(C(N)=O)CC2)c(C)o1		inconclusive: 17.8 µM [activator, single point]
COc1ccc(CCNC(=O)CSc2nnc(CNc3ccc(Cl)cc3)o2)cc1OC		inconclusive: 3.16 µM [activator, single point]
Cc1cc(N)n(-c2ccc3ccccc3c2)n1		inconclusive: 0.501 µM [activator, full curve, poor fit]
CCN(CC)C1CCN(C(=O)c2cc(COc3ccc(F)cc3Cl)on2)C1 (stereo unspecified)		inconclusive: 0.398 µM [activator, partial curve, poor fit]
Cc1ccc(NC(=O)c2cc(-c3cccs3)on2)cc1C		inconclusive: 5.01 µM [activator, single point]
O=C(Cc1ccsc1-c1ccccc1)NO	inactive: 0.34%	
Cc1ccc(C(=O)Nc2ccc3[nH]c(=O)[nH]c3c2)c(C)c1		inconclusive: 28.2 µM [activator, single point]
O=C(N/N=C/c1cc(Br)ccc1O)c1cccc(N2CCCC2=O)c1	inactive: -17.9%	
COc1ccc(-n2nc(C(=O)NCc3ccco3)c3c4ccccc4n(C)c3c2=O)cc1		inconclusive: 2 µM [activator, partial curve, poor fit]
C#Cc1cccc(NC(=O)c2ccc3c(c2)C(=O)N(Cc2cccnc2)C3=O)c1	inactive: 41.4%	
COc1ccc(OC)c(NC(=S)N2CCN(c3ccccn3)CC2)c1	inactive: 6.57%	
O=C1NC(=O)C2(Br)Nc3ccc(Br)cc3C(=O)C2N1 (stereo unspecified)		inconclusive: 3.16 µM [activator, single point]
CCc1sc(C(=O)Nc2cccnc2)cc1Br		inconclusive: 5.01 µM [activator, single point]
